Counter-ions that a name gives are not always drawn. The campaign covered roughly 2,100 compounds. About 180 (8.6%) showed an effect of 50% or more. Some of the results follow.

For the assay, the system named is MOLM1 and UCSD/AML1 (averaged). Kind of assay: cell viability relative to DMSO control (POC); higher = less growth inhibition. Conditions: 1 µM; 72 h. As to the method: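 Primary viability screen in the 3q26 EVI1-high AML cell lines MOLM1 and UCSD/AML1 (1.5e3 cells/well, 384-well), compounds at 1 uM for 72 h. ATP CellTiter-Glo read-out given as percent of viable cells over DMSO control (POC), averaged over duplicates. DMSO was the negative control and 5 uM etoposide the positive control. This mapping covers the MicroSource Spectrum and Selleck anticancer libraries (drug names).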
With `C[C@@H]1CC[C@@]2(OC1)O[C@H]1C[C@H]3[C@@H]4CC[C@@H]5C[C@@H](O)CC[C@]5(C)[C@H]4CC[C@]3(C)[C@H]1[C@@H]2C`, the cell viability amounted to 97.4%.
Take `CCOC(=O)[C@H](CCc1ccccc1)N[C@@H](C)C(=O)N1CCC[C@H]1C(=O)O`: the cell viability turned out to be 104%.
As for `CC(=O)N[C@@H](Cc1ccccc1)C(=O)O`, the figure is 100%; as for `Cn1nnnc1SCC1=C(C(=O)O)N2C(=O)[C@@H](NC(=O)[C@H](OC=O)c3ccccc3)[C@H]2SC1`, 104%; as for `COc1cc(O)c(C)c(O)c1`, 106%.
Consider `OCC(O)C(O)C(O)C(O)C(O)CO` (centres undefined), for which the cell viability was found to be 102%.
For the compound `C[C@H](CCC(=O)O)[C@H]1CC[C@H]2[C@@H]3CC[C@@H]4CCCC[C@]4(C)[C@H]3CC[C@]12C`, the cell viability stood at 98.9%.
As for `N=C(N)NC(=O)c1nc(Cl)c(N2CCCCCC2)nc1N`, the figure is 102%.
As to `C=CC(=O)N1CCC[C@@H](n2nc(-c3ccc(Oc4ccccc4)cc3)c3c(N)ncnc32)C1`, the cell viability came out at 60.3%.
The result for `CC1=C(CC(=O)O)c2cc(F)ccc2/C1=C\c1ccc([S+](C)[O-])cc1` (centres undefined) reads 105%; that for `Cc1nc(N)sc1-c1ccnc(Nc2ccc(N3CCOCC3)cc2)n1`, 46.7%; that for `CN(C)CCCO[C@@H]1[C@H]2OC(C)(C)O[C@H]2O[C@@H]1[C@H](O)CO`, 105%.
The result for `C[C@]12CC[C@@H]3c4ccc(O)cc4CC[C@H]3[C@@H]1C[C@@H](O)[C@@H]2O` reads 98.6%; that for `CCCCC(=O)O[C@]1(C(=O)CO)CC[C@H]2[C@@H]3CCC4=CC(=O)CC[C@]4(C)[C@H]3[C@@H](O)C[C@@]21C`, 81.2%.
As to `CCc1cccc2c3c([nH]c12)C(CC)(CC(=O)O)OCC3` (centres undefined), the cell viability was found to be 96.5%.
As to `Cc1noc(NS(=O)(=O)c2ccc(N)cc2)c1C`, the cell viability came out at 111%.
The result for `OCCOCCN1CCN(C(c2ccccc2)c2ccc(Cl)cc2)CC1` (centres undefined) reads 105%; that for `Cc1ccccc1N1C(=O)c2cc(S(N)(=O)=O)c(Cl)cc2NC1C` (centres undefined), 101%; that for `CO[C@H]1[C@H](O)[C@@H](O)[C@H](O)[C@H](O)[C@H]1O`, 95.8%.
The result for `Cc1cc(-n2c(=O)[nH]c(=O)n(C)c2=O)ccc1Oc1ccc(SC(F)(F)F)cc1` reads 108%; that for `CC(C)CCC[C@@H](C)[C@H]1CC[C@H]2[C@@H]3C(=O)C=C4C[C@@H](O)CC[C@]4(C)[C@H]3CC[C@]12C`, 95.7%.
As for `COc1ccc(-c2coc3c(OC)c(OC)cc(O)c3c2=O)cc1`, the figure is 101%.
For `COc1ccc2[nH]c([S+]([O-])Cc3ncc(C)c(OC)c3C)nc2c1` (centres undefined), the cell viability turned out to be 92.4%.
As for `CCCCC(CC)CN=C(N)N=C(N)NCCCCCCNC(N)=NC(N)=NCC(CC)CCCC` (centres undefined), the figure is 7.07%.
As for `CC(=O)Nc1ccc(O)cc1`, the figure is 102%.
The result for `CC(=O)Oc1c(C)c(C)c2c(c1C)CCC(C)(CCCC(C)CCCC(C)CCCC(C)C)O2` (stereo not drawn) [alpha-TOCHOPHERYL ACETATE] reads 104%.
Regarding `Nc1cccc2c1CN(C1CCC(=O)NC1=O)C2=O` (centres undefined) [Lenalidomide], the cell viability was 103%.
In the case of `C=CCSCC(N)C(=O)O` (centres undefined), the cell viability stood at 121%.
For `O=c1ccc2ccc(O)c(O)c2o1`, the cell viability came out at 115%.
As for `O.O.O.O.O=C([O-])CC(O)(CC(=O)[O-])C(=O)[O-].[Li+].[Li+].[Li+]`, the figure is 91%; as for `CN1CCC(=C2c3ccccc3CC(=O)c3sccc32)CC1`, 88.8%.
As for `CCCN(CCC)C(=O)C(CCC(=O)O)NC(=O)c1ccccc1` (centres undefined), the figure is 99.1%.
As for `O=C(O)CC[C@H]1CC[C@@](c2cc(F)ccc2F)(S(=O)(=O)c2ccc(Cl)cc2)CC1`, the figure is 71%; as for `CC[C@H](CC[C@@H](C)[C@H]1CC[C@H]2[C@@H]3CC=C4C[C@@H](O)CC[C@]4(C)[C@H]3CC[C@]12C)C(C)C` [beta-SITOSTEROL], 104%.
With `CC(C)(Sc1cc(C(C)(C)C)c(O)c(C(C)(C)C)c1)Sc1cc(C(C)(C)C)c(O)c(C(C)(C)C)c1`, the cell viability was determined as 99.2%.
The result for `CS(=O)(=O)CCNCc1ccc(-c2ccc3ncnc(Nc4ccc(OCc5cccc(F)c5)c(Cl)c4)c3c2)o1` [Lapatinib] reads 64.7%.
As for `CS(=O)(=O)CCNCc1ccc(-c2ccc3ncnc(Nc4ccc(OCc5cccc(F)c5)c(Cl)c4)c3c2)o1` [Lapatinib Ditosylate (Tykerb)], the figure is 109%; as for `COc1cc(-c2coc3cc(OC)c(OC)c(OC)c3c2=O)cc(OC)c1OC`, 96%.
As for `Cn1ccnc1S`, the figure is 94.2%; as for `Nc1c(Br)cc(Br)cc1CN[C@H]1CC[C@H](O)CC1`, 91.6%; as for `Oc1ccc(Cl)c2cccnc12`, 100%.
For `CC(=O)NO`, the cell viability came to 101%.
The result for `COc1ccc(-c2c(O)c3c(OC)c4c(cc3oc2=O)OC(C)(C)C=C4)cc1` reads 93.5%; that for `CN1CCCN=C1COC(=O)C(O)(c1ccccc1)C1CCCCC1` (centres undefined), 94.5%.
The result for `COc1cc(Nc2ncc(F)c(Nc3ccc4c(n3)NC(=O)C(C)(C)O4)n2)cc(OC)c1OC` [R406(free base)] reads 56.8%; that for `CCCCCCCCCCC[C@@H](C[C@@H]1OC(=O)[C@H]1CCCCCC)OC(=O)[C@H](CC(C)C)NC=O`, 71%; that for `CS(=O)(=O)c1cccc(CNc2nc(Nc3ccc4c(c3)CCC(=O)N4)ncc2C(F)(F)F)c1`, 83.3%.
The result for `COc1cc(C/C=C/c2ccccc2)c(OC)cc1O` reads 93.6%.
Turning to `O=C1O[C@H](CO)[C@@H](O)[C@H](O)[C@H]1O`, the cell viability was determined as 103%.
As for `O=C(O)CCCN1C(=O)c2cccc3cccc(c23)C1=O`, the figure is 103%; as for `CO[C@H]1C[C@H](O[C@H]2[C@H](C)[C@@H](O[C@@H]3O[C@H](C)C[C@H](N(C)C)[C@H]3OC(C)=O)[C@@H](C)C[C@@]3(CO3)C(=O)[C@H](C)[C@@H](OC(C)=O)[C@@H](C)[C@@H](C)OC(=O)[C@@H]2C)O[C@@H](C)[C@@H]1OC(C)=O`, 102%; as for `CC(C)(S)[C@@H](N)C(=O)O`, 113%.
Regarding `CN1CCN(C2=Nc3cc(Cl)ccc3Nc3ccccc32)CC1`, the cell viability came to 91.4%.
With `CO[C@@H](C(=O)N1Cc2[nH]nc(NC(=O)c3ccc(N4CCN(C)CC4)cc3)c2C1)c1ccccc1`, the cell viability was found to be 13.4%.
The result for `C=C1C2CC[C@@]3(C)[C@H](c4ccoc4)OC(=O)C[C@]13O[C@H]1CC(O)C(C)(C)C(CC(=O)OC)[C@@]21C` (stereo partly drawn) [3alpha-HYDROXY-3-DEOXYANGOLENSIC ACID METHYL ESTER] reads 97.3%; that for `COc1c(O)cc2c(-c3ccccc3)cc(=O)oc2c1OC`, 92.8%.
As for `CC(=O)O[C@H]1CC[C@]2(C)C3=C(CC[C@H]2C1(C)C)[C@]1(C)CC[C@H]([C@H](C)CCC=C(C)C)[C@@]1(C)CC3`, the figure is 94.1%; as for `O=C(O)c1ccccc1Nc1ccccc1`, 116%.
For the compound `N=C1C=CC(=C(c2ccc(N)cc2)c2ccc(N)cc2)C=C1`, the cell viability came to 82.5%.
The result for `Clc1ccc(COC(Cn2ccnc2)c2ccc(Cl)cc2Cl)c(Cl)c1` (centres undefined) reads 99%; that for `Cc1cc(=O)n(-c2ccccc2)n1C`, 106%.
The result for `O=C(O)c1cc(O)c2c(c1)[C@@H]([C@H]1c3cc(C(=O)O)cc(O)c3C(=O)c3c(O[C@@H]4O[C@H](CO)[C@@H](O)[C@H](O)[C@H]4O)cccc31)c1cccc(O[C@@H]3O[C@H](CO)[C@@H](O)[C@H](O)[C@H]3O)c1C2=O` reads 110%.
The result for `NC12CC3CC(CC(C3)C1)C2` reads 98.7%; that for `CN1CC(=O)NC1=N`, 104%; that for `O=C(Cc1ccc(-c2ccc(OCCN3CCOCC3)cc2)cn1)NCc1ccccc1`, 8.82%.
For `Nc1ncn([C@H]2C[C@H](O)[C@@H](CO)O2)c(=O)n1` [Decitabine], the cell viability turned out to be 41.3%.
Consider `NCCCCNCCCN`, for which the cell viability was determined as 92.8%.
In the case of `CC(=O)N(O)CCCCCNC(=O)CCC(=O)N(O)CCCCCNC(=O)CCC(=O)N(O)CCCCCN`, the cell viability is 97.1%.
Consider `C=CC(C)(O)CCC1C(=C)CC(O)C2C(C)(C)CCCC12C` (centres undefined), for which the cell viability came out at 105%.
With `CCNC(=O)CC[C@H](N)C(=O)O`, the cell viability came to 92.2%.
On to `CCN[C@H]1C[C@H](C)S(=O)(=O)c2sc(S(N)(=O)=O)cc21` [Dorzolamide HCL], for which the cell viability was determined as 104%.
For the compound `CC(C)/N=c1\cc2n(-c3ccc(Cl)cc3)c3ccccc3nc-2cc1Nc1ccc(Cl)cc1`, the cell viability was 66.1%.
`C[C@@H]1[C@H](O)[C@@H](C)/C=C/C=C/C=C/C=C/C=C/C=C/C=C/[C@H](O[C@@H]2O[C@H](C)[C@@H](O)[C@H](N)[C@@H]2O)C[C@@H]2O[C@](O)(C[C@@H](O)C[C@@H](O)[C@H](O)CC[C@@H](O)C[C@@H](O)CC(=O)O[C@H]1C)C[C@H](O)[C@H]2C(=O)O`: the cell viability was determined as 97.1%.
As for `CO[C@@]1(NC(=O)CSCC#N)C(=O)N2C(C(=O)O)=C(CSc3nnnn3C)CS[C@@H]21`, the figure is 102%; as for `CCOC(=O)C(C)(C)Oc1ccc(Cl)cc1`, 97.2%.
The result for `CN1CCc2cccc3c2[C@H]1Cc1ccc(O)c(O)c1-3` reads 97.1%.
The result for `C[C@H](NC(=O)Cc1cc(F)cc(F)c1)C(=O)N[C@H](C(=O)OC(C)(C)C)c1ccccc1` reads 76.1%.
Turning to `CCC(NC(C)C)C(O)c1ccc(O)c(O)c1` (centres undefined), the cell viability worked out at 72.7%.
The result for `CCC(Cc1c(I)cc(I)c(N)c1I)C(=O)O` (centres undefined) reads 101%.
The result for `C[C@]12CC[C@@H]3c4ccc(O)cc4CC[C@H]3[C@@H]1CC[C@@H]2OC(=O)CCC1CCCC1` reads 97.7%.
For `Nc1ccccc1NC(=O)c1ccc(CNC(=O)OCc2cccnc2)cc1` [Entinostat (MS-275, SNDX-275)], the cell viability came to 12.6%.
`NC1(C(=O)O)CCC1`: the cell viability is 102%.
As for `CC(=O)O[C@H]1CC[C@]2(C)C(C[C@@H](OC(C)=O)[C@]3(C)C4=CC(=O)O[C@H](c5ccoc5)[C@@]4(C)CCC23)C1(C)C` (stereo partly drawn) [3-DEOXO-3beta-ACETOXYDEOXYDIHYDROGEDUNIN], the figure is 92.3%; as for `N=C(N)NC(=O)c1nc(Cl)c(N)nc1N`, 94.6%.
The result for `CCCCOC(=O)c1ccc(N)cc1` reads 91.5%; that for `CCCCC1=NC2(CCCC2)C(=O)N1Cc1ccc(-c2ccccc2-c2nnn[nH]2)cc1`, 96.6%.
`C[C@H]1COC2=C1C(=O)C(=O)c1c2ccc2c1CCCC2(C)C`: the cell viability was 97.7%.
Regarding `CN(C)CC[C@H](CSc1ccccc1)Nc1ccc(S(=O)(=O)NC(=O)c2ccc(N3CCN(Cc4ccccc4-c4ccc(Cl)cc4)CC3)cc2)cc1[N+](=O)[O-]`, the cell viability came out at 32.3%.
For `CNS(=O)(=O)Cc1ccc2[nH]cc(CCN(C)C)c2c1`, the cell viability was determined as 101%.
